Primary screen of a compound library

From ChEMBL document CHEMBL3988442, “University of Dundee, Small-Polar-MMV Screening Library” (2021).

A: 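Whole-cell growth test on Mycobacterium tuberculosis, read after 4 days in a medium based on cholesterol and the lipid DPPC; the read-out is not stated. Concentration: 50 µM. The record gives no direction; compounds that gave an IC50 in retests scored well above the rest, so higher reads as more growth inhibition. Of about 69,000 compounds tested this way, about 370 (0.54%) reached 50% or more in at least one test.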
B: 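Phenotypic screen: M. tuberculosis growth, glucose 7H9 medium, 3 days; the read-out is not stated. Tested at 50 µM. Higher reads as more growth inhibition (inferred: compounds with an IC50 in retests scored well above the rest). Size under these conditions: about 69,000 compounds, about 760 of them at 50% or above in at least one test.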

Results are given as percent effect. The record does not define 0% and 100%; most values in the screen are far below 50% and negative numbers occur (in some assays of this library far below -100). The compounds are a random part of those screened. Two or more numbers in one place are separate tests of the same structure; such repeats can differ widely.

| structure | A | B |
|---|---|---|
| `CN(Cc1cnn(C)c1)C1CCN(c2cccc(-c3cscn3)c2)CC1` | 14.04% | 5.72% |
| `CC(CN1CCCC1=O)NC(=O)c1cc(=O)[nH]c2ccc(Cl)cc12` (configuration not stated) | -25.07% | -26.58% |
| `CC(C)c1noc(CN2CCC3(CCCO3)CCC2=O)n1` (configuration not stated) | -7.26% | -13.66% |
| `O=C(c1cc(C2CCCCN2C(=O)C2CCC2)n[nH]1)N1CCOCC1` (configuration not stated) | -16.9% | -21.1% |
| `CCO[C@H]1CO[C@@]2(CCCN(S(=O)(=O)c3cccnc3)C2)C1.O=C(O)C(F)(F)F` | -6.453% | 0.6312% |
| `Cc1cn2c(CN(C)C(=O)c3cccnc3O)c(C)nc2s1` | -10.45% | 3.458% |
| `Cc1nc(CNCC2CNc3ccnn3C2)cs1` (configuration not stated) | 24.7% | 32.47% |
| `CCOc1ccccc1-c1noc(CN2CCCC(O)C2)n1` (configuration not stated) | 16.01% | 18.84% |
| `CC(C)c1nnc(NC(=O)NCc2ccnc(N(C)C)c2)s1` | -28% | -28.78% |
| `O=C(Cn1ccc2sccc2c1=O)NCc1ccc(F)cc1` | 5.886% | 10.61% |
| `CCn1ccc(C(=O)N2CCOC(c3nc(-c4cccs4)no3)C2)n1` (configuration not stated) | 36.29% | 24.46% |
| `Cn1c(C(=O)N2CCc3[nH]cnc3C2C(=O)O)ccc1-c1ccccc1` (configuration not stated) | 0.3079% and -4.104% | 18.83% |
| `CC(Cc1ccco1)NC(=O)Nc1cccnc1` (configuration not stated) | -23.19% | -5.626% |
| `CCn1cnnc1C1CCN(C(=O)c2cnc(C)s2)CC1` | -8.986% | 0.7034% and -34.62% |
| `Cc1nn2c(N3CCC(C#N)CC3)cc(-c3ccccc3)nc2c1C` | 13.1% and -7.926% | 27.23% |
| `COCC(=O)N[C@H](C)c1c(-c2ccc(Cl)cc2)noc1C(=O)O` | 8.321% | -14.15% and -1.693% |
| `Cc1cc(C(=O)N2CCc3ncnc(-c4cnn(C)c4)c3CC2)no1` | 7.178% | -17.75% |
| `Cc1n[nH]cc1CNC1(c2ccc(F)cc2)CCCC1` | 0.2672% | -3.877% |
| `CN(C(=O)CSc1ncc[nH]1)c1ccccc1` | -40.53% and -13.05% | -21.56% |
| `O=S(=O)(NCC1(O)CCOc2ccccc21)c1ccc(Cl)s1` (configuration not stated) | 3.392% | -0.7658% |
| `Cc1occc(=O)c1OCC(=O)N1CCN(c2cccc(Cl)c2)CC1` | -15.91% | 0.1652% |
| `Cc1ncc(-c2ccnc(N3CCCCC3)n2)c(=O)[nH]1` | 0.06071% | -11.97% |
| `CCCn1nc(C)c(C(=O)N(C)[C@@H]2CC[C@@H](N3CCCC3)[C@@H]2O)c1C` | -4.458% and -14.83% | -14.8% |
| `Cc1n[nH]c(C)c1CCN(C)c1ccc(-c2nc(C3CC3)no2)cn1` | -24.84% | 3.56% and -41.86% |
| `NC(=O)COCCNC(=O)Nc1sc2ccccc2c1Cl` | 11.7% | 38.2% |
| `CC(C)NC(=O)Cn1cc(OCc2ccc(F)cc2)c(=O)cc1CO` | -26.08% | -26.06% |
| `O=c1[nH]nc2c(N3CCOCC3)nccn12` | -16.28% | 7.192% |
| `N#CCCN(Cc1ccco1)C(=O)COC1CCCCC1` | -3.761% | 32.97% |
| `COCCNC(=O)c1cc(S(=O)(=O)N2CCCCC2)cs1` | 14.96% | 39.86% |
| `Cc1ccc(CN2CCOCC2)cc1NCc1ccsc1` | 9.513% | -0.031% and 5.4% |
| `COCCn1c(-c2cccc(OC)c2)cnc1NC(=O)NCCC(C)C` | 46.19% | 49.18% |
| `CCc1cnc(C)nc1NCC(O)CN1CCCCCC1` (configuration not stated) | 0.6286% | 6.19% and 14.07% |
| `CN(C)C(=O)CN1CCC2(CCN(Cc3nccs3)CC2)C1=O.O=C(O)C(F)(F)F` | -15.68% | -74.39% |
| `CCOc1ncccc1CNC(=O)NC1CCOc2ccccc21` (configuration not stated) | -14.67% | -24.84% |
| `Cc1ccccc1N1CCN(C(=O)c2ncc(F)cc2F)C(C)C1` (configuration not stated) | -20.57% | -30.41% |
| `O=C(O)c1cc2n(n1)CCCN(C(=O)CCc1c[nH]c3ccccc13)C2` | 4.968% | -31.81% and -3.138% |
| `[H][C@]12CC[C@]([H])(CN(C(=O)c3cnccn3)C1)N(C(=O)Cc1ccsc1)C2` | -14.23% | -10.45% |
| `CCS(=O)(=O)NC1CCCN(c2ccc(F)cc2C)C1=O` (configuration not stated) | 8.357% | -17.45% |
| `CC(C)NC(=O)C(C(C)C)n1cnc2cc(F)c(F)cc21` (configuration not stated) | -10.56% | 4.88% |
| `Cc1cncc(CN2C[C@@H](O)[C@H](Oc3ccccc3)C2)c1` | 1.286% | 9.671% |
| `CCN(CC)CCCC(C)NC(=O)c1ccccc1-n1cccn1` (configuration not stated) | 1.697% | -8.603% and 2.363% |
| `Cc1cc(CN2CCOC(C)(C(=O)N3CCOCC3)C2)no1` (configuration not stated) | -10.08% | -2.973% |
| `COCC(Nc1ncnc2c1CCNCC2)c1ccccn1` (configuration not stated) | 7.541% | 8.296% |
| `COCC(=O)N1CCC2(CC1)CC(N1CCOCC1)c1ccc(C)cc12` (configuration not stated) | -11.43% | -14.71% |
| `Cc1[nH]c2c(C)ccc(C)c2c1CC(=O)NCCCNc1cccnc1` | -1.301% | 14.08% |
| `CCCNC(=O)c1ccc2c(OC)n(C)nc2c1` | 12.58% | 4.165% and 35.41% |
| `CN(CCCn1cnc2c(N)ncnc21)Cc1ccccc1` | 4.294% | 14.03% |
| `Cc1noc(CS(=O)(=O)CC(=O)NC(C)c2ccccc2)n1` (configuration not stated) | 4.421% | 29.63% |
| `Cn1cc(S(=O)(=O)Nc2ccc(Cl)cn2)cc1C(N)=O` | 13.4% and -3.716% | 1.808% |
| `Cn1cc(CN2CCCC(c3nc(O)cc(-c4cccs4)n3)C2)cn1` (configuration not stated) | -12.16% | -20.09% |
| `CCCc1noc(C(C)N2CCN(Cc3nc(C)c(C)o3)CC2)n1` (configuration not stated) | 9.587% | -6.903% |
| `Cc1ccc(-c2nc(CN3CCCC(C(=O)N(C)C)C3)cs2)o1` (configuration not stated) | -9.839% | -17.91% |
| `[H][C@@]12CCN(S(=O)(=O)CCC)[C@@]1([H])CC(=O)N2Cc1csc(C)n1` | 6.066% | -19.29% |
| `CS(=O)(=O)NC1CCCN(Cc2ccc(OCc3ccccn3)cc2)C1` (configuration not stated) | -9.686% | 20.9% |
| `N#CCCN(Cc1ccco1)C(=O)CCCNC(=O)c1ccccc1` | 20.62% | -0.05055% and 10.57% |
| `CCn1cc(CN2CCC(C3CCN(C)CC3)CC2)cc1C#N` | 3.293% | 15.38% |
| `Cc1noc(C)c1C(=O)N1CCCN(Cc2nccn2C(C)C)CC1` | -0.8075% | -6.419% |
| `CN(C)C(=O)c1cnc(-c2ccc3c(c2)OCO3)s1` | -3.503% | -3.026% |
| `COc1cccc(S(=O)(=O)N2CCn3cnc(COCC4CC4)c3C2)c1` | 7.672% | 23.81% |
| `C1CN(CCN2CCOCC2)CCN1` | -3.457% | 18.27% |
| `OC[C@H]1CN(Cc2c(Cl)cncc2Cl)C[C@H]1CN1CCCCCC1` | 1.725% and -17% | 5.798% and -36.26% |
| `CC(=O)N1CC2(CCCCN2Cc2ccc(Cl)cc2)Cc2ccccc21` (configuration not stated) | -14.68% | 6.531% |
| `CCCN(CC(=O)NC)C(=O)c1ccc(-c2ccsc2)nc1C` | 3.123% | 13.01% and 5.436% |
| `Cc1nc(NCc2noc(C3CCCO3)n2)c2sccc2n1` (configuration not stated) | -42.99% and -3.994% | -22.49% |
| `Cc1ccc(C)c(CC(=O)NC2CCCS(=O)(=O)C2)c1` (configuration not stated) | -28.41% | -43.37% and -4.774% |
| `CN1C(=O)C2(CCN(CCO)C2)c2ccccc21` (configuration not stated) | -13.24% | -8.989% |
| `Cc1cnc(CN(C)C2CCN(CCCc3cnn(C)c3)C2)o1` (configuration not stated) | -3.003% | -33.16% |
| `Cn1nccc1C(=O)N1Cc2ccccc2OC2(CCOCC2)C1` | -8.108% | -19.49% |
| `CNC(=O)[C@@H]1CN(C(=O)C(C)C)C[C@H]1c1ccnc(N2CCCC2)n1.Cl` | -11.44% and -1.079% | -27.66% |
| `COC(=O)CCn1ccc(=O)c2ccc(OC)cc21` | -21.81% | -31.74% |
| `Nc1nc(C2CCN(C(=O)c3cscn3)CC2)cs1` | -17.03% | -9.969% |
| `Cc1nn(C)c(C)c1C1COCCN1c1ncnc2sccc12` (configuration not stated) | 10.63% | 1.687% |
| `Cc1ccc2nc(C(=O)N3C[C@@H](C(=O)O)[C@H](c4ccccc4)C3)cn2c1` | -6.568% | -5.676% |

The last 9 entries again:

Cc1ccc(C)c(CC(=O)NC2CCCS(=O)(=O)C2)c1 (configuration not stated) gave A: -28.41%; B: -43.37% and -4.774%.
CN1C(=O)C2(CCN(CCO)C2)c2ccccc21 (configuration not stated) gave A: -13.24%; B: -8.989%.
Cc1cnc(CN(C)C2CCN(CCCc3cnn(C)c3)C2)o1 (configuration not stated) gave A: -3.003%; B: -33.16%.
Cn1nccc1C(=O)N1Cc2ccccc2OC2(CCOCC2)C1 gave A: -8.108%; B: -19.49%.
CNC(=O)[C@@H]1CN(C(=O)C(C)C)C[C@H]1c1ccnc(N2CCCC2)n1.Cl gave A: -11.44% and -1.079%; B: -27.66%.
COC(=O)CCn1ccc(=O)c2ccc(OC)cc21 gave A: -21.81%; B: -31.74%.
Nc1nc(C2CCN(C(=O)c3cscn3)CC2)cs1 gave A: -17.03%; B: -9.969%.
Cc1nn(C)c(C)c1C1COCCN1c1ncnc2sccc12 (configuration not stated) gave A: 10.63%; B: 1.687%.
Cc1ccc2nc(C(=O)N3C[C@@H](C(=O)O)[C@H](c4ccccc4)C3)cn2c1 gave A: -6.568%; B: -5.676%.